No constants are given. Whether binding was seen depends on the method and setting. In cells and extracts the contact can be indirect. Some results given as binding are weak or reduced against the parent protein; the word gives no strength.
Target: Myc-tagged human SNAP29 (synaptosomal-associated protein 29) (human) (UniProt O95721)
Assay: co-IP

By UniProt entry, the sequences of proteins in these tests, tags left out.
UniProt O95721: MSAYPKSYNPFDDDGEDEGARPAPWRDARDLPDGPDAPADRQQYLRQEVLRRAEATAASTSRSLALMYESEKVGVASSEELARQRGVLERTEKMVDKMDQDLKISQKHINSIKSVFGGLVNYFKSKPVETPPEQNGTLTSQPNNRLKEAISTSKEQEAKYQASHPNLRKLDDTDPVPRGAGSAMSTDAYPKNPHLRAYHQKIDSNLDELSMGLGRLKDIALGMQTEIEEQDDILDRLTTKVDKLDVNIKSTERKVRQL
UniProt P56962: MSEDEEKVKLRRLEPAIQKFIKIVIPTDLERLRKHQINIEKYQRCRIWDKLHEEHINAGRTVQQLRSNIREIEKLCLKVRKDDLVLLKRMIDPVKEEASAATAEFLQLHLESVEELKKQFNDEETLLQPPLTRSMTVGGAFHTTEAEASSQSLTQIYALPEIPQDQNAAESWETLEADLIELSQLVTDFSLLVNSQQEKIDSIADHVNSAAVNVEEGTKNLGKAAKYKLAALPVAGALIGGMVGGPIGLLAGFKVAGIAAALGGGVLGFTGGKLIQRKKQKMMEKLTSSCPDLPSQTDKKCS

HA-tagged syntaxin17 (STX17) (from UniProt P56962 1-302)
binding: binds

— paper doi:10.1101/2024.06.13.598619
